Reference: article PMC6448480, “A Two-Way Proteome Microarray Strategy to Identify Novel Mycobacterium tuberculosis-Human Interactors” (Frontiers in Cellular and Infection Microbiology, 2019)
These are yes or no findings as the source states them, for the method shown. In cells and extracts the contact can be indirect. Some results given as binding are weak or reduced against the parent protein; the word gives no strength. For part of these data: Where a sequence is shown, tags or fusion partners need not be part of it.

Protein sequences, listed by entry. Tags and fused reporters are not part of them.
UniProt P71925: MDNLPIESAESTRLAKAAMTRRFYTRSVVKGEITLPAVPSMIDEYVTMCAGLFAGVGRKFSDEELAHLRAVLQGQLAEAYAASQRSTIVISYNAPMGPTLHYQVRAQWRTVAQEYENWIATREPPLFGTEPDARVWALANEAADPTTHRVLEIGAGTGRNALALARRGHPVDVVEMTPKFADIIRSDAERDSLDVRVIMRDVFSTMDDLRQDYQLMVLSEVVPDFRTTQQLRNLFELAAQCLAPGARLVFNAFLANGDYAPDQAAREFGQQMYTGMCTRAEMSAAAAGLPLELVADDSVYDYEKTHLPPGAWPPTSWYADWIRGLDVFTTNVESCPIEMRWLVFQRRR
UniProt O33252: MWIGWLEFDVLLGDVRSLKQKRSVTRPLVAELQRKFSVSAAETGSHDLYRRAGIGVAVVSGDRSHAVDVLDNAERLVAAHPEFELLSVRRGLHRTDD
UniProt Q15796: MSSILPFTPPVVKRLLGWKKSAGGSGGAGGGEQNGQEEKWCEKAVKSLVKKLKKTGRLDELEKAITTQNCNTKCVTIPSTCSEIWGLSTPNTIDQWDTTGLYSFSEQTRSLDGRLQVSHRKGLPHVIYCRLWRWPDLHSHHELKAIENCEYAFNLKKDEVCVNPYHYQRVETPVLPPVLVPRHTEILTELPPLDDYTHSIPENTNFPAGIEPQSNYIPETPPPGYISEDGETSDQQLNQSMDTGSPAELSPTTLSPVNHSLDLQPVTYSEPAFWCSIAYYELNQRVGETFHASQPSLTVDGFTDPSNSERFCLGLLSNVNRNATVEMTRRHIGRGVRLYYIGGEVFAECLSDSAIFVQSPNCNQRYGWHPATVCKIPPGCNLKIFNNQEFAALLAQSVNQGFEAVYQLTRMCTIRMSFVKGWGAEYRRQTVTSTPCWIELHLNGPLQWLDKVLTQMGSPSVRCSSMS

Legend:
Test in all cases: co-IP
[1] = biological target: Flag-Rv2423 (Mycobacterium tuberculosis) (UniProt P71925)
[2] = biological target: Flag-Rv2117 (Mycobacterium tuberculosis) (UniProt O33252)
[3] = biological target: T1, Flag-Rv0577 (Mycobacterium tuberculosis) (UniProt P9WIR3)
T1 sequence: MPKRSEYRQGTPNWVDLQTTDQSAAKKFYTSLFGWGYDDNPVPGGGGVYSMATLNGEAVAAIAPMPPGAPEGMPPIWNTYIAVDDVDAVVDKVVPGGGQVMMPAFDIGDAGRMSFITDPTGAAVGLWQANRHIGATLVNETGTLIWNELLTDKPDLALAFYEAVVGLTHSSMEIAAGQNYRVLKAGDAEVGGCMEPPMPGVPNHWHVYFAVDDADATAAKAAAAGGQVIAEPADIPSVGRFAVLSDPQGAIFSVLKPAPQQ

Measured: binding

endogenous SMAD2 (HEK293T) (from UniProt Q15796 1-467)
binds: all assays above
